Earlier results, collected in article PMC10886162, “Synthesis of Novel Artemisinin, Ciprofloxacin, and Norfloxacin Hybrids with Potent Antiplasmodial Activity” (Antibiotics, 2024).

Tested on: CQ-resistant P. falciparum strain FcB1
Conditions: earlier work of the group; cited from earlier work

Structure (SMILES)	times more potent than FSM
CCOP(=O)(CCCN(O)C(=O)CCC(=O)N(CCCCNC(=O)CCC1OC2OC3(C)CCC4C(C)CCC(C1C)C24OO3)CCCCNC(=O)CCC1OC2OC3(C)CCC4C(C)CCC(C1C)C24OO3)OCC (centres unmarked) [conjugate 9]	23.1
CCOP(=O)(CCCN(O)C(=O)CCC(=O)N(CCCCNC(=O)CCC1OC2OC3(C)CCC4C(C)CCC(C1C)C24OO3)CCCNC(=O)CCC1OC2OC3(C)CCC4C(C)CCC(C1C)C24OO3)OCC (centres unmarked) [conjugate 8]	41.5
